Here are results for one substance from PMC9192689.

Chains of the proteins cited; added tags and fusions are not shown.
UniProt P37198: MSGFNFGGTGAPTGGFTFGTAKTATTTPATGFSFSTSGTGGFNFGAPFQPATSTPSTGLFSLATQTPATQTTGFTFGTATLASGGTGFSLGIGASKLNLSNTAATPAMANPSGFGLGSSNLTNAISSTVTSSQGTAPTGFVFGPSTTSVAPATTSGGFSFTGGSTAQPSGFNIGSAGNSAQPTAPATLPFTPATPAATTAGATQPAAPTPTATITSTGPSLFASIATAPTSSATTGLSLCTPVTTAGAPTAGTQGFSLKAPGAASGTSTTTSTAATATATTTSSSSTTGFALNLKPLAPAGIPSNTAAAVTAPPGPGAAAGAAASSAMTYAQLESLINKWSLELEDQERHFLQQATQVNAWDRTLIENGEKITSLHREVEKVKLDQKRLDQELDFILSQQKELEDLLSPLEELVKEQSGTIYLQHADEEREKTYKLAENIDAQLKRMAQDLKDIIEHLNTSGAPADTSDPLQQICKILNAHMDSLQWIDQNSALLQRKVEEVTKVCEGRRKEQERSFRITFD

These are yes or no findings as the source states them, for the method shown. Binding seen in cells or lysates may run through a third protein. Binding calls can cover weak binding; strength is not graded here.

This test addresses eGFP-TDP-43 (ΔNLS) (UniProt Q13148). Nature of the test: co-IP; HEK293 cells co-transfected with mRuby-NUP62 and eGFP-TDP-43 (WT or ΔNLS) for 24 h; lysate incubated with GFP-Trap Magnetic Agarose beads 3 h at 4 °C; washed three times in 10 mM Tris/Cl pH 7.5, 150 mM NaCl, 0.5 mM EDTA; immunoblot for NUP62 and TDP-43. On the technique in general: In western blotting, separated proteins are transferred to a membrane and probed.

On to mRuby-NUP62 (from UniProt P37198 1-522), for which the binding entry is listed as “binds”.
